In PubChem BioAssay AID504834 (National Center for Advancing Translational Sciences (NCATS), 2011):
Out of some 320,000 compounds screened, about 22,000 (6.9%) were called active. This list was built around the results that the source calls inconclusive (neither active nor inactive); the mix of calls is not that of the screen. Calls come from the whole dose curve; as a rule, active = well fitted inhibition curve with a large enough effect; inconclusive = small, poorly fitted or top-dose-only effect, or another doubt; inactive = no such curve, though single readings can be large or run the other way. Potencies beside an inconclusive call are fits to weak or partial responses and may not hold up.

Test: Primary qHTS for delayed death inhibitors of the malarial parasite plastid, 96 hour incubation
Settings: P. falciparum luciferase reporter growth; series mostly up to 28.7 µM; activity change, negative = inhibition: at the top concentration
Procedure, shortened: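 Erythrocytes infected with luciferase-expressing P. falciparum were dispensed at 2% hematocrit and 0.05% parasitemia (final), then incubated with compounds 96 hours at 37 C in 5% CO2. Luminescence after detection reagent addition reported growth.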
% is set by controls: 0 for no effect and ±100 for the full control effect; potency is the fitted concentration of half-maximal effect.

| Compound | activity change, negative = inhibition | Potency |
| --- | --- | --- |
| Cc1noc(C)c1C(=O)NC1=NCCS1 | inactive: -24.8% |  |
| CC(=O)c1cccc(NC(=O)Nc2csc3c2CCCC3)c1 |  | inconclusive: 18.5 µM [inhibitor, single point] |
| COC(=O)C(C)Sc1nc2c(c(=O)n1-c1ccccc1)SCC2 (stereo not drawn) |  | inconclusive: 10.4 µM [inhibitor, single point] |
| CC1=C(C(=O)N2CCCCC2)C(c2cccs2)NC(=O)N1 (stereo not drawn) |  | inconclusive: 10.4 µM [inhibitor, single point] |
| O=[N+]([O-])c1ccc(NC(=S)NCCc2ccc(Cl)cc2)cc1 |  | active: 1.85 µM |
| NC(=O)C1CCCN(C(=O)c2ccc(Cl)cc2)C1 (stereo not drawn) | inactive: 27.6% |  |
| CCOC(=O)c1oc2cc(OC(C)=O)ccc2c(=O)c1-c1ccc(OC)c(OC)c1 | inactive: -6.74% |  |
| COc1cc(/C=C2\SC(=O)NC2=O)ccc1Oc1ccc([N+](=O)[O-])cc1[N+](=O)[O-] | inactive: 90.9% |  |
| CCN1CCn2c1nc(N1CCOCC1)nc2=O |  | inconclusive: 9.28 µM [inhibitor, single point] |
| Cc1nc(N2CCC(C)CC2)c2oc3ccccc3c2n1 |  | inconclusive: 18.5 µM [inhibitor, single point] |
| COCCCN(C(=S)Nc1cc(Cl)cc(Cl)c1)C(C)c1ccncc1 (stereo not drawn) |  | inconclusive: 18.5 µM [inhibitor, single point] |
| CC(NC(=O)Cn1c(NCCO)nc2ccccc21)C1CC2CCC1C2 (stereo not drawn) |  | inconclusive: 18.5 µM [inhibitor, single point] |
| COc1ccc(CCNS(=O)(=O)c2ccc3c(c2)CC(C)N3C(C)=O)cc1OC (stereo not drawn) |  | inconclusive: 10.4 µM [inhibitor, partial curve, poor fit] |
| CCCc1sc(N2CCCC(C(N)=O)C2)nc1-c1ccccc1 (stereo not drawn) |  | inconclusive: 1.47 µM [inhibitor, partial curve] |
| NS(=O)(=O)c1ccc(CCNS(=O)(=O)c2ccccc2)cc1 |  | inconclusive: 13.1 µM [inhibitor, single point] |
| Cc1cc(C)c(CN2CCC(N3CCC(C(=O)NCC4CCCO4)CC3)CC2)cc1C (stereo not drawn) |  | inconclusive: 4.15 µM [inhibitor, partial curve, poor fit] |
| COc1cc(NC(=O)CN2C(=O)NC3(CCOc4ccccc43)C2=O)cc(OC)c1 (stereo not drawn) |  | inconclusive: 0.329 µM [inhibitor, full curve, poor fit] |
| CCCCNC(C(=O)Nc1ccc(Cl)c([N+](=O)[O-])c1)c1ccccc1 (stereo not drawn) |  | active: 11.7 µM |
| CC(=O)N(Cc1cc(=O)[nH]c2ccccc12)c1ccccc1C | inactive: -23.7% |  |
| CCOc1ccc(CSC(=N)N)cc1Cl |  | inconclusive: 18.5 µM [inhibitor, partial curve, poor fit] |
| CC1Cc2ccccc2N1C(=O)CCn1c(=O)sc2ccccc21 (stereo not drawn) |  | inconclusive: 9.28 µM [inhibitor, single point] |
| Cc1ccc(NS(=O)(=O)c2ccc3c(c2)oc(=O)n3C)cc1F |  | inconclusive: 0.415 µM [inhibitor, full curve] |
| COc1cc(NC2c3ccccc3C(=O)N2Cc2ccccc2)cc(OC)c1OC (stereo not drawn) |  | inconclusive: 9.28 µM [inhibitor, partial curve] |
| CN(C)C(=O)C1C2NC(=S)N(c3cccc(Cl)c3)C1(C)Oc1ccc(Cl)cc12 (stereo not drawn) |  | inconclusive: 0.37 µM [inhibitor, full curve, poor fit] |

| Compound | activity change, negative = inhibition | Potency |
| --- | --- | --- |
| COc1cccc(CC2(CO)CCN(S(=O)(=O)N(C)C)CC2)c1 | inactive: -27% |  |
| CCN(CCNC(=O)CC1Oc2ccccc2NC1=O)c1ccccc1 (stereo not drawn) |  | inconclusive: 18.5 µM [inhibitor, single point] |
| CCOc1ccc2nc(/N=C/c3nc(-c4ccc(Br)cc4)oc3O)sc2c1 | inactive: -24.4% |  |
| CN(CCO)c1cc(N2CCCCC2)c2nonc2c1[N+](=O)[O-] |  | inconclusive: 10.4 µM [inhibitor, single point] |
| C[n+]1c2ccccc2nc2ccc(NCCO)cc21 |  | active: 0.131 µM |
| CC(C)CCON=O | inactive: -2.16% |  |
| CN(C)S(=O)(=O)c1ccc(NC(=S)NC(=O)c2ccc(Br)o2)cc1 | inactive: 16.9% |  |
| COc1ccc(NC(=O)NNC(=O)C(C)Oc2ccc(C(C)C)cc2)c(OC)c1 (stereo not drawn) |  | inconclusive: 8.28 µM [inhibitor, partial curve, poor fit] |
| CC1CCCN(C(=O)CSc2nc3ncccc3[nH]2)C1 (stereo not drawn) | inactive: -1.05% |  |
| CC(NC(=O)CSc1nc2ccccc2c(=O)n1CCCO)c1ccccc1 (stereo not drawn) |  | inconclusive: 2.94 µM [inhibitor, partial curve, poor fit] |
| O=C(Nc1ccccc1)C1CCN(C(=O)c2ccc(Br)cc2)CC1 |  | inconclusive: 18.5 µM [inhibitor, single point] |
| COc1cc(NC(=O)CSc2nnc3ccccn23)cc(OC)c1 |  | inconclusive: 18.5 µM [inhibitor, single point] |
| Cc1c(OC(C)C(=O)NCCCn2ccnc2)ccc2c3c(c(=O)oc12)CCC3 (stereo not drawn) |  | active: 11.7 µM |
| C/C(=N\NC(=O)CNC(=O)c1ccccc1F)c1ccco1 |  | inconclusive: 7.38 µM [inhibitor, partial curve] |
| O=[N+]([O-])c1ccc(-c2cn3c(n2)CCC3)cc1 | inactive: 102% |  |
| Cc1nnsc1SCCNC(=O)Nc1ccc(Cl)cc1 |  | inconclusive: 10.4 µM [inhibitor, partial curve, poor fit] |
| Cc1ccc(OCc2ccc([N+](=O)[O-])cc2)c([N+](=O)[O-])n1 | inactive: -11.7% |  |
| CCc1nnc(NC(=O)Nc2ccc(OC)cc2)s1 | inactive: 2.3% |  |
| Cc1ccc(NC2=NCC(=O)N2Cc2ccccc2)c(C)c1 |  | inconclusive: 0.586 µM [inhibitor, partial curve, poor fit] |
| CC(C)(C)c1cc(C(=O)NNc2cccc(Cl)c2)n(Cc2ccccc2)n1 |  | inconclusive: 16.5 µM [inhibitor, single point] |
| Cc1cccc(C)c1NC1=NC2(CCCCC2)N=C(N)N1 | inactive: 95.4% |  |
| O=C(NCCC1CCCCN1S(=O)(=O)c1cccs1)C(=O)NCc1ccccc1 (stereo not drawn) |  | inconclusive: 16.5 µM [inhibitor, single point] |
| Fc1cc(F)c2nc(N3CCCCC3)sc2c1 |  | active: 8.28 µM |
| CSc1cccc(NC(=O)CN(C)S(=O)(=O)c2ccccc2)c1 |  | inconclusive: 14.7 µM [inhibitor, single point] |

Two entries from above, set out differently.
CN(CCO)c1cc(N2CCCCC2)c2nonc2c1[N+](=O)[O-]
  Potency: inconclusive: 10.4 µM [inhibitor, single point]
C[n+]1c2ccccc2nc2ccc(NCCO)cc21
  Potency: active: 0.131 µM

3 entries already listed, ordered by number of heavy atoms, largest number first.

| Compound | activity change, negative = inhibition | Potency |
| --- | --- | --- |
| O=C(NCCC1CCCCN1S(=O)(=O)c1cccs1)C(=O)NCc1ccccc1 (stereo not drawn) |  | inconclusive: 16.5 µM [inhibitor, single point] |
| Cc1ccc(NC2=NCC(=O)N2Cc2ccccc2)c(C)c1 |  | inconclusive: 0.586 µM [inhibitor, partial curve, poor fit] |
| CCc1nnc(NC(=O)Nc2ccc(OC)cc2)s1 | inactive: 2.3% |  |
